Laboratory results taken from article doi:10.1101/2022.05.24.493304.
These are yes or no findings as the source states them, for the method shown. In cells and extracts the contact can be indirect. Some results given as binding are weak or reduced against the parent protein; the word gives no strength. Each block holds one binder with its values, some of them ahead of it.

How the values were obtained:
Assay in all cases: co-IP
[1] = biological target: T1, GS15 (BET1L) (human (endogenous in HEK293T)) (UniProt Q9NYM9)
T1 sequence: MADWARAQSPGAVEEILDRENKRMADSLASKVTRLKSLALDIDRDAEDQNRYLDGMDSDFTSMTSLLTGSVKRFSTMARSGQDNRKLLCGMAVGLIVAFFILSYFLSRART

[2] = biological target: T2, SNAP29 (human (endogenous in HEK293T)), O95721; details: remark: other sources report otherwise
T2 chain: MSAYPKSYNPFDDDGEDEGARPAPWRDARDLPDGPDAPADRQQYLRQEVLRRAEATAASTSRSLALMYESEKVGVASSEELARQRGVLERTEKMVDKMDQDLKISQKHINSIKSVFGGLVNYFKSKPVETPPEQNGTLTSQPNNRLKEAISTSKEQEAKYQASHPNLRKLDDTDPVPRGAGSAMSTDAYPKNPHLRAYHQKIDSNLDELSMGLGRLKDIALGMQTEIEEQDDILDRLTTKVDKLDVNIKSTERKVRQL

[3] = biological target: SNAP29 (human (endogenous in HEK293T)) (UniProt O95721)
[4] = biological target: T3, STX5 (human (endogenous in HEK293T)) (UniProt Q13190)
T3 sequence: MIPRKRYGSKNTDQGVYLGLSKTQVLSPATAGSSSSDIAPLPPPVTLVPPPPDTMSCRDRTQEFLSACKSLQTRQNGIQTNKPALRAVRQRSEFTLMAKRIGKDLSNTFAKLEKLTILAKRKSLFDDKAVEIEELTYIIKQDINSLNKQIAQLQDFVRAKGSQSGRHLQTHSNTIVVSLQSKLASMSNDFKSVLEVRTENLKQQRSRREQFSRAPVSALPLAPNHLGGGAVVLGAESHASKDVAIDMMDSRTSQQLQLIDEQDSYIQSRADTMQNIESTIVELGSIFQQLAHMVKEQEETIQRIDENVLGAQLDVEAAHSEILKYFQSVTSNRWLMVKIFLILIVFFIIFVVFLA

binding [1]: binds
B1: YKT6 (protein, UniProt O15498 1-198)
chain: MKLYSLSVLYKGEAKVVLLKAAYDVSSFSFFQRSSVQEFMTFTSQLIVERSSKGTRASVKEQDYLCHVYVRNDSLAGVVIADNEYPSRVAFTLLEKVLDEFSKQVDRIDWPVGSPATIHYPALDGHLSRYQNPREADPMTKVQAELDETKIILHNTMESLLERGEKLDDLVSKSEVLGTQSKAFYKTARKQNSCCAIM

binding [2]: no binding
B2: YKT6, O15498 1-198 (protein)
chain: B1 chain

binding [1]: binds
binding [3]: binds
B3: STX5 (protein, UniProt Q13190 1-355)
chain: T3 sequence

binding [3]: no binding
B4: COG3 (protein, UniProt Q96JB2 1-828)
chain: MAEAALLLLPEAAAERDAREKLALWDRRPDTTAPLTDRQTDSVLELKAAAENLPVPAELPIEDLCSLTSQSLPIELTSVVPESTEDILLKGFTSLGMEEERIETAQQFFSWFAKLQTQMDQDEGTKYRQMRDYLSGFQEQCDAILNDVNSALQHLESLQKQYLFVSNKTGTLHEACEQLLKEQSELVDLAENIQQKLSYFNELETINTKLNSPTLSVNSDGFIPMLAKLDDCITYISSHPNFKDYPIYLLKFKQCLSKALHLMKTYTVNTLQTLTSQLLKRDPSSVPNADNAFTLFYVKFRAAAPKVRTLIEQIELRSEKIPEYQQLLNDIHQCYLDQRELLLGPSIACTVAELTSQNNRDHCALVRSGCAFMVHVCQDEHQLYNEFFTKPTSKLDELLEKLCVSLYDVFRPLIIHVIHLETLSELCGILKNEVLEDHVQNNAEQLGAFAAGVKQMLEDVQERLVYRTHIYIQTDITGYKPAPGDLAYPDKLVMMEQIAQSLKDEQKKVPSEASFSDVHLEEGESNSLTKSGSTESLNPRPQTTISPADLHGMWYPTVRRTLVCLSKLYRCIDRAVFQGLSQEALSACIQSLLGASESISKNKTQIDGQLFLIKHLLILREQIAPFHTEFTIKEISLDLKKTRDAAFKILNPMTVPRFFRLNSNNALIEFLLEGTPEIREHYLDSKKDVDRHLKSACEQFIQQQTKLFVEQLEEFMTKVSALKTMASQGGPKYTLSQQPWAQPAKVNDLAATAYKTIKTKLPVTLRSMSLYLSNKDTEFILFKPVRNNIQQVFQKFHALLKEEFSPEDIQIIACPSMEQLSLLLLVSK

binding [4]: binds
B5: VTI1B (protein, UniProt Q9UEU0 1-232)
chain: MASSAASSEHFEKLHEIFRGLHEDLQGVPERLLGTAGTEEKKKLIRDFDEKQQEANETLAEMEEELRYAPLSFRNPMMSKLRNYRKDLAKLHREVRSTPLTATPGGRGDMKYGIYAVENEHMNRLQSQRAMLLQGTESLNRATQSIERSHRIATETDQIGSEIIEELGEQRDQLERTKSRLVNTSENLSKSRKILRSMSRKVTTNKLLLSIIILLELAILGGLVYYKFFRSH
